{"sequences": {"note": "Chains of the proteins cited; added tags and fusions are not shown. Lines headed by an entry give the natural chain unless they say otherwise; changes in a name come on top.", "UniProt P18054": "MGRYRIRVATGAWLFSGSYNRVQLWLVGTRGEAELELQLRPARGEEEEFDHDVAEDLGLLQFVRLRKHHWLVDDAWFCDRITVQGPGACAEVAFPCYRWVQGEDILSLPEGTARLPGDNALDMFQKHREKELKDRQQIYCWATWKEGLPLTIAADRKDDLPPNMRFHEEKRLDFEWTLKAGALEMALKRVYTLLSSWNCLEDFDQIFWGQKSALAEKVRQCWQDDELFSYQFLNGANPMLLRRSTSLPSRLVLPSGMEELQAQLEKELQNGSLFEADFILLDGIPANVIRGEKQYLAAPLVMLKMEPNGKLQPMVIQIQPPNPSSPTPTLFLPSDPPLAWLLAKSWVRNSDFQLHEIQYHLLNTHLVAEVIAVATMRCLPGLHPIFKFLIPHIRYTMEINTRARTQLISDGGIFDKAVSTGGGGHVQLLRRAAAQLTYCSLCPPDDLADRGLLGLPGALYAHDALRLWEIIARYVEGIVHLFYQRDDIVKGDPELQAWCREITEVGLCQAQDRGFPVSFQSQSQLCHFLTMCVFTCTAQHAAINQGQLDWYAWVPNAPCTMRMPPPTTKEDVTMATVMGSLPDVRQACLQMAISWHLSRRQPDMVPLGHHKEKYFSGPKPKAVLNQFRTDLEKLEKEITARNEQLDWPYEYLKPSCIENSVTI"}, "source": "PubChem BioAssay AID1671190", "about": "(National Center for Advancing Translational Sciences (NCATS), 2021)", "note": "Screen size: about 580,000 compounds; about 6,100 (1.1%) were called active. Inconclusive means that the source gave no clear call. Such entries were picked first, then a sample of the others. The call rests on the fitted dose curve; in most records, active means well fitted inhibition curve with a large enough effect; inconclusive means small, poorly fitted or top-dose-only effect, or another doubt; inactive means no such curve, though single readings can be large or run the other way. Potencies beside an inconclusive call are fits to weak or partial responses and may not hold up. On the % scale 0 is the no-effect control and ±100 the full control effect; potency means the concentration at half of the fitted maximal effect.", "data": [{"target": "Polyunsaturated fatty acid lipoxygenase ALOX12 (Homo sapiens) (UniProt P18054)", "experiment": "Primary qHTS assay for inhibitors of human arachidonate 12S-lipoxygenase (ALOX12): Round 2", "conditions": "purified 12hLO, xylenol orange hydroperoxide absorbance; activity change, negative = inhibition: at 108 µM (top of the series) unless noted", "how_it_was_run": "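Purified human 12hLO (150 nM final) in 25 mM Hepes, 0.01% Triton X-100, pH 7.0 was preincubated 15 min at room temperature with compound. Then 40 uM arachidonic acid was added, 30 min. Hydroperoxide was read by Fe-XO absorbance ratio 573/405 nm.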", "values": [{"smiles": "COc1ccc2[nH]c(C(=O)c3ccccc3)cc2c1", "activity change, negative = inhibition": "inactive: 2.04%"}, {"smiles": "CCOc1ccc2nc(NCCNC(=S)NCCCN(C)C)c(C#N)cc2c1", "activity change, negative = inhibition": "inactive: -19.9%"}, {"smiles": "C#C[C@]1(OC(C)=O)CC[C@H]2[C@@H]3CCC4=C/C(=N/O)CC[C@@H]4[C@H]3CC[C@@]21CC", "activity change, negative = inhibition": "inactive: -15.9% [at 22.9 µM]"}, {"smiles": "Cc1ccc(C(=O)N/C(=C\\c2ccco2)C(=O)N2CCOCC2)cc1C", "Potency": "inconclusive: 25.1 µM [inhibitor, partial curve]"}, {"smiles": "CCCNC(=O)C(C)Sc1nc(-c2ccco2)nc2ccccc12", "note": "(configuration not stated)", "activity change, negative = inhibition": "inactive: 1.43%"}, {"smiles": "O=C(c1ccc(Oc2cc(Cl)cc(Cl)c2)o1)N1CCCCC1", "Potency": "inconclusive: 70.8 µM [inhibitor, partial curve, poor fit]"}, {"smiles": "CC(=O)Nc1cc(Cl)c(N=Cc2ccc(O)cc2O)cc1Cl", "Potency": "inconclusive: 44.7 µM [inhibitor, partial curve, poor fit]"}, {"smiles": "O=S(=O)(Nc1ccc(N2CCCCC2)cc1)c1ccc(F)cc1", "Potency": "inconclusive: 89.1 µM [inhibitor, partial curve, poor fit]"}, {"smiles": "O=S(=O)(NCc1ccccn1)c1cc(C(F)(F)F)ccc1Cl", "activity change, negative = inhibition": "inactive: -22.5%"}, {"smiles": "Cc1ccc2nc(C3CCCN(Cc4cccc(-c5cccs5)c4)C3)[nH]c(=O)c2c1", "note": "(configuration not stated)", "Potency": "inconclusive: 35.5 µM [inhibitor, partial curve]"}, {"smiles": "N#Cc1c[nH]n2c(=O)cc(CSc3nnc(-c4ccccc4F)n3C3CC3)nc12", "Potency": "inconclusive: 56.2 µM [inhibitor, partial curve, poor fit]"}, {"smiles": "Cc1ccc(-c2nc(C(=O)NC3CCCCCC3)no2)cc1", "activity change, negative = inhibition": "inactive: 460%"}, {"smiles": "Cc1ccc(N=c2sc(C)c(C)n2C)cc1", "Potency": "inconclusive: 50.1 µM [inhibitor, partial curve, poor fit]"}, {"smiles": "CCOC(=O)c1ccc(/C=C2/C=C(c3ccccc3)N(c3ccc(Cl)c(C(=O)O)c3)C2=O)cc1", "Potency": "active: 44.7 µM"}, {"smiles": "O=C(Nc1ccc(F)cc1Cl)c1nc2ccccc2nc1N1CCCCC1", "Potency": "inconclusive: 100 µM [inhibitor, single point]"}, {"smiles": "CCN1CCN(C(=O)NC2CCCCC2)CC1", "Potency": "inconclusive: 0.398 µM [inhibitor, full curve, poor fit]"}, {"smiles": "C[C@@H]1CN(C(=O)NCC2CCCCC2)CC[C@@]1(O)C1CCOCC1", "activity change, negative = inhibition": "inactive: 21.7%"}, {"smiles": "Cc1ccc(S(=O)(=O)NN=CC=CC=NNS(=O)(=O)c2ccc(C)cc2)cc1", "Potency": "active: 3.98 µM"}, {"smiles": "COc1ccc(NC(=S)Nn2cnnc2)c(OC)c1", "Potency": "inconclusive: 31.6 µM [inhibitor, partial curve, poor fit]"}, {"smiles": "Cc1nc(SCCOc2ccc(F)cc2)c2ccccc2n1", "Potency": "inconclusive: 50.1 µM [inhibitor, partial curve, poor fit]"}, {"smiles": "NS(=O)(=O)c1ccc(N/N=C/c2ccccc2)c([N+](=O)[O-])c1", "activity change, negative = inhibition": "inactive: 5.23%"}, {"smiles": "CCSc1nc(-c2ccccc2)nc(C(Cl)Cl)n1", "Potency": "inconclusive: 0.355 µM [inhibitor, full curve, poor fit]"}, {"smiles": "CCOC(=O)c1c(C)n(S(=O)(=O)c2ccc(C)cc2)c2ccc(NS(=O)(=O)c3ccc(C)cc3)cc12", "activity change, negative = inhibition": "inconclusive: -42.8% [inhibitor]"}, {"smiles": "CN(C)c1cccc(C(=O)Oc2ccc(C#N)cc2)c1", "Potency": "inconclusive: 0.316 µM [inhibitor, full curve, poor fit]"}, {"smiles": "COc1ccc(-c2cc(N3CCC(NC(=O)Cc4ccc(Cl)cc4)CC3)n[nH]2)cc1", "Potency": "inconclusive: 11.2 µM [inhibitor, full curve]"}, {"smiles": "CC(=O)NC[C@H]1OC[C@@H](NCC(C)(C)C)[C@@H]1O", "activity change, negative = inhibition": "inactive: -7.78% [at 176 µM]"}, {"smiles": "Clc1ccc(CN2C3=NCCN3c3ccccc32)cc1Cl", "Potency": "inconclusive: 44.7 µM [inhibitor, single point]"}, {"smiles": "CN(C)CCCN(C(=O)c1ccc(Br)s1)c1nc2cc3c(cc2s1)OCCO3", "Potency": "inconclusive: 22.4 µM [inhibitor, partial curve, poor fit]"}, {"smiles": "O=C(O)c1cc(-c2ccccc2F)no1", "Potency": "inconclusive: 11.2 µM [inhibitor, full curve]"}, {"smiles": "C=CCn1c(-c2oc3nc(-c4ccccc4)cc(-c4ccccc4)c3c2N)n[nH]c1=S", "Potency": "inconclusive: 12.6 µM [inhibitor, partial curve]"}, {"smiles": "Cc1nc(S(=O)(=O)c2ccc(Cl)cc2)c(N(C)C)o1", "activity change, negative = inhibition": "inactive: -15.2%"}, {"smiles": "O=c1c2ccccc2cnn1CCOc1ccccc1", "activity change, negative = inhibition": "inactive: 12.2%"}, {"smiles": "C=C(C)CN=C1NN=C(c2cc(C)n(-c3ccc(C)cc3)c2C)CS1", "Potency": "inconclusive: 141 µM [inhibitor, partial curve, poor fit]"}, {"smiles": "O=C(CSc1nnc(CNC(=O)c2cccs2)o1)Nc1ccc(Br)cc1", "Potency": "inconclusive: 28.2 µM [inhibitor, partial curve, poor fit]"}, {"smiles": "CC1(C(=O)N2CC3(CC(c4cccc(NC(=O)CC(c5ccccc5)c5ccccc5)c4)=NO3)C[C@@H]2C(N)=O)CC1", "note": "(some centres not stated)", "activity change, negative = inhibition": "inactive: -14.7%"}, {"smiles": "Cc1ccc(S(=O)(=O)N2[C@@H](c3ccc(Br)cc3)C(C(=O)O)=C[C@H]2C(C)(C)C)cc1", "Potency": "inconclusive: 126 µM [inhibitor, single point]"}, {"smiles": "O=C(c1ccc(Cl)c(Cl)c1)N1CCC(=O)N(C(COCc2cccc(C(F)(F)F)c2)Cc2ccccc2)CC1", "note": "(configuration not stated)", "Potency": "inconclusive: 56.2 µM [inhibitor, partial curve, poor fit]"}, {"smiles": "O=S(=O)(NCC1(COc2cnccn2)C[C@@H](O)[C@@H](O)C1)c1ccc(F)cc1", "note": "(some centres not stated)", "Potency": "inconclusive: 25.1 µM [inhibitor, full curve]"}, {"smiles": "COc1ccc(CNc2ccc3c(c2)CCC3)cc1Br", "Potency": "inconclusive: 39.8 µM [inhibitor, partial curve, poor fit]"}, {"smiles": "Cc1cccc(C)c1-n1nnnc1C(CCc1ccccc1)N1CCN(C/C=C/c2ccccc2)CC1", "note": "(configuration not stated)", "Potency": "inconclusive: 100 µM [inhibitor, single point]"}, {"smiles": "Cc1cccc2nc(CSc3nncn3-c3ccccc3)cn12", "Potency": "inconclusive: 7.08 µM [inhibitor, partial curve, poor fit]"}, {"smiles": "COc1ccc2occ(C(=O)c3coc4ccc(O)c(CN(C)C)c34)c2c1", "Potency": "inconclusive: 35.5 µM [inhibitor, partial curve, poor fit]"}]}]}
